Here are results for 52 compounds from patent US20160090556A1, “PRODUCTS COMPRISING MALODOR REDUCTION MATERIALS” (The Procter & Gamble Company, priority 2014, published 2016).

The data set is described as follows: Melamine formaldehyde PMC leakage.
Setting [1] is: class code letter within Comment Code.
The mark [2] stands for this setting: code J of the Comment Code column, Table 1.

Like-named read-outs stand apart in the source and are kept apart here.

As to `O=CC(=Cc1ccco1)c1ccccc1` [Material 833], the “Melamine formaldehyde PMC leakage (Comment Code J)” value is on record as “J (Melamine formaldehyde PMC leakage less than or equal to 5%)”. Take `CC=Cc1ccc(OCc2ccccc2)c(OC)c1` [Material 212]: the “Melamine formaldehyde PMC leakage (Comment Code J)” value under setting [1] is “J (Melamine formaldehyde PMC leakage less than or equal to 5%)”. The “Comment Code: Melamine formaldehyde PMC leakage” value (code letter J) is recorded as “J (Melamine formaldehyde PMC leakage less than or equal to 5%)”. On to `O=C1CCC=CCCCCCCCCCC1` [Material 371], for which the “Melamine formaldehyde PMC leakage (Comment Code J)” value under setting [1] was “J (Melamine formaldehyde PMC leakage less than or equal to 5%)”. As to `C=C(C)[C@@H]1CCC2=CCC[C@@H](C)[C@]2(C)C1` [Material 1105], the “Melamine formaldehyde PMC leakage (Comment Code J)” value is listed as “J (Melamine formaldehyde PMC leakage less than or equal to 5%)”. Still for that read-out and setting: in the case of `CC(C)=C1CCC2=CC(=O)CC(C)C2(C)C1` (stereo not shown) [Material 684] it was “J (Melamine formaldehyde PMC leakage less than or equal to 5%)”. For `CC1(C)CCc2ccc(CCC=O)cc21` [Material 261], under setting [1], the “Melamine formaldehyde PMC leakage (Comment Code J)” value is “J (Melamine formaldehyde PMC leakage less than or equal to 5%)”. Besides, the “Comment Code: Melamine formaldehyde PMC leakage” value (code letter J) is given as “J (Melamine formaldehyde PMC leakage less than or equal to 5%)”.

Turning to `CC1=C2CC(C(C)(C)O)CCC2(C)CCC1` (stereo not shown) [Material 329], under setting [1], the “Melamine formaldehyde PMC leakage (Comment Code J)” value is reported as “J (Melamine formaldehyde PMC leakage less than or equal to 5%)”. Besides, the “Comment Code: Melamine formaldehyde PMC leakage” value (code letter J) is “J (Melamine formaldehyde PMC leakage less than or equal to 5%)”. In the case of `CC1=CCC(C=CC(C)(C)C(C)O)C1(C)C` (stereo not shown) [Material 53], the “Comment Code: Melamine formaldehyde PMC leakage” value (code letter J) is on record as “J (Melamine formaldehyde PMC leakage less than or equal to 5%)”. With `CCOC(=O)C1CCC(C(=O)OCC)CC1` (stereo not shown) [Material 347], under setting [1], the “Melamine formaldehyde PMC leakage (Comment Code J)” value is “J (Melamine formaldehyde PMC leakage less than or equal to 5%)”. Consider `O=CCCC=C1CC2CC1C1CCCC21` (stereo not shown) [Material 418], for which the “Melamine formaldehyde PMC leakage (Comment Code J)” value under setting [1] was “J (Melamine formaldehyde PMC leakage less than or equal to 5%)”. Regarding `CC1=CCC(/C=C/C(C)(C)C(C)O)C1(C)C` (stereo not shown) [Material 985], the “Melamine formaldehyde PMC leakage (Comment Code J)” value is “J (Melamine formaldehyde PMC leakage less than or equal to 5%)”. The same measure, in the same setting: in the case of `CC1CCC(C(C)C)C(=O)C1` (stereo not shown) [Material 905] it was “J (Melamine formaldehyde PMC leakage less than or equal to 5%)”; in that of `CC1(C)C2CC=C(CCC=O)C1C2` (stereo not shown) [Material 781], “J (Melamine formaldehyde PMC leakage less than or equal to 5%)”. On to `C=CC1(C)CCC(C(C)(C)O)CC1C(=C)C` (stereo not shown) [Material 414], for which, under setting [1], the “Melamine formaldehyde PMC leakage (Comment Code J)” value was “J (Melamine formaldehyde PMC leakage less than or equal to 5%)”. Regarding `C=C1CCC23CC1C(C)(C)C2CCC3C` (stereo not shown) [Material 632], the “Melamine formaldehyde PMC leakage (Comment Code J)” value is given as “J (Melamine formaldehyde PMC leakage less than or equal to 5%)”. Besides, under “code letter J”, the “Comment Code: Melamine formaldehyde PMC leakage” value is “J (Melamine formaldehyde PMC leakage less than or equal to 5%)”. Take `CCCCCOC(=O)c1ccccc1` [Material 672]: the “Comment Code: Melamine formaldehyde PMC leakage” value (code letter J) was “J (Melamine formaldehyde PMC leakage less than or equal to 5%)”. Consider `CC1=CC2C(CC1)C(C)=CCC2C(C)C` (stereo not shown) [Material 725], for which the “Melamine formaldehyde PMC leakage (Comment Code J)” value is given as “J (Melamine formaldehyde PMC leakage less than or equal to 5%)”. `CCCCCCCCCCCCCCCCO` [Material 558]: under setting [1], the “Melamine formaldehyde PMC leakage (Comment Code J)” value was “J (Melamine formaldehyde PMC leakage less than or equal to 5%)”. Consider `CC(=O)c1cc2c(cc1C)C(C)(C)C(C)CC2(C)C` (stereo not shown) [Material 776], for which the “Melamine formaldehyde PMC leakage (Comment Code J)” value was “J (Melamine formaldehyde PMC leakage less than or equal to 5%)”.

As to `CCCCCCC/C=C\CCC=O` [Material 1045], the “Melamine formaldehyde PMC leakage (Comment Code J)” value is given as “J (Melamine formaldehyde PMC leakage less than or equal to 5%)”.

For the compound `CC(=O)c1cc(C(C)(C)C)cc2c1CCC2(C)C` [Material 563], the “Melamine formaldehyde PMC leakage (Comment Code J)” value is “J (Melamine formaldehyde PMC leakage less than or equal to 5%)”. On to `COC(=O)C=C(C)CCC=C(C)C` [Material 111], for which, where the note is “code letter J”, the “Comment Code: Melamine formaldehyde PMC leakage” value is “J (Melamine formaldehyde PMC leakage less than or equal to 5%)”. Turning to `COc1c2ccoc2cc2oc(=O)ccc12` [Material 638], the “Melamine formaldehyde PMC leakage (Comment Code J)” value is recorded as “J (Melamine formaldehyde PMC leakage less than or equal to 5%)”. Consider `COC1CC2CC1C1CC(C=O)CC21` (stereo not shown) [Material 1026], for which the “Melamine formaldehyde PMC leakage (Comment Code J)” value was “J (Melamine formaldehyde PMC leakage less than or equal to 5%)”.

`O=C1CCCCCCCCCCOCCCCO1` [Material 562]: the “Melamine formaldehyde PMC leakage (Comment Code J)” value is “J (Melamine formaldehyde PMC leakage less than or equal to 5%)”.

As for `CC(=O)CCCC(C)CCCC(C)CCCC(C)C` (stereo not shown) [Material 782], the “Melamine formaldehyde PMC leakage (Comment Code J)” value is “J (Melamine formaldehyde PMC leakage less than or equal to 5%)”. As to `C=C1C2CCC(C2)C1(C)CCC=C(C)CO` (stereo not shown) [Material 616], the “Melamine formaldehyde PMC leakage (Comment Code J)” value is recorded as “J (Melamine formaldehyde PMC leakage less than or equal to 5%)”. The “Comment Code: Melamine formaldehyde PMC leakage” value (code letter J) is reported as “J (Melamine formaldehyde PMC leakage less than or equal to 5%)”.

As for `CC(=O)c1c(C)c([N+](=O)[O-])c(C(C)(C)C)c([N+](=O)[O-])c1C` [Material 77], the “Melamine formaldehyde PMC leakage (Comment Code J)” value under setting [1] is on record as “J (Melamine formaldehyde PMC leakage less than or equal to 5%)”. In the case of `CCCCCCCC/C=C\CC=O` [Material 884], the “Melamine formaldehyde PMC leakage (Comment Code J)” value was “J (Melamine formaldehyde PMC leakage less than or equal to 5%)”. The same measure, in the same setting: in the case of `C=C1CCC=C(C)CCC2C1CC2(C)C` (stereo not shown) [Material 633] it was “J (Melamine formaldehyde PMC leakage less than or equal to 5%)”.

As to `CC1COCc2cc3c(cc21)C(C)(C)C(C)C3(C)C` (stereo not shown) [Material 335], the “Melamine formaldehyde PMC leakage (Comment Code J)” value under setting [1] was “J (Melamine formaldehyde PMC leakage less than or equal to 5%)”. Besides, where the note is “code letter J”, the “Comment Code: Melamine formaldehyde PMC leakage” value is listed as “J (Melamine formaldehyde PMC leakage less than or equal to 5%)”. Take `C[C@@H]1CC[C@H]2[C@@H]1[C@H]1[C@@H](CC[C@]2(C)O)C1(C)C` [Material 1140]: the “Comment Code: Melamine formaldehyde PMC leakage” value under setting [2] was “J (Melamine formaldehyde PMC leakage less than or equal to 5%)” and the “Comment Code: Melamine formaldehyde PMC leakage” value (code letter J) was “J (Melamine formaldehyde PMC leakage less than or equal to 5%)”. On to `CCc1ccc(CC(C)(C)C#N)cc1` [Material 361], for which the “Melamine formaldehyde PMC leakage (Comment Code J)” value under setting [1] is recorded as “J (Melamine formaldehyde PMC leakage less than or equal to 5%)”. Regarding `CCCCCCOC(=O)c1ccco1` [Material 275], the “Comment Code: Melamine formaldehyde PMC leakage” value (code letter J) is on record as “J (Melamine formaldehyde PMC leakage less than or equal to 5%)”. With `CC1C(C)(C)C2=C(C3OC(C)(C)OC3CC2)C1(C)C` (stereo not shown) [Material 23], the “Melamine formaldehyde PMC leakage (Comment Code J)” value under setting [1] is listed as “J (Melamine formaldehyde PMC leakage less than or equal to 5%)”. Also, the “Comment Code: Melamine formaldehyde PMC leakage” value (code letter J) is listed as “J (Melamine formaldehyde PMC leakage less than or equal to 5%)”. Regarding `CC(C)=C1CCC(C)C2=C(C1)C(C)CC2` (stereo not shown) [Material 626], the “Melamine formaldehyde PMC leakage (Comment Code J)” value is on record as “J (Melamine formaldehyde PMC leakage less than or equal to 5%)”.

Turning to `CC(C=O)Cc1ccc2c(c1)OCO2` (stereo not shown) [Material 288], the “Melamine formaldehyde PMC leakage (Comment Code J)” value under setting [1] is listed as “J (Melamine formaldehyde PMC leakage less than or equal to 5%)”. Consider `CCCCCC(=Cc1ccccc1)C(OCC)OCC` [Material 723], for which the “Melamine formaldehyde PMC leakage (Comment Code J)” value was “J (Melamine formaldehyde PMC leakage less than or equal to 5%)”.

Consider `CC(=O)OCC=C(C)CCC=C(C)CCC=C(C)C` [Material 368], for which the “Melamine formaldehyde PMC leakage (Comment Code J)” value under setting [1] is recorded as “J (Melamine formaldehyde PMC leakage less than or equal to 5%)”. The same measure, in the same setting: next, `CCCCCCCCOC(=O)c1ccco1` [Material 28]: “J (Melamine formaldehyde PMC leakage less than or equal to 5%)”. With `CC1C(C)(C)C2CCC3CC(C)(C)OC3C2C1(C)C` (stereo not shown) [Material 679], the “Melamine formaldehyde PMC leakage (Comment Code J)” value is reported as “J (Melamine formaldehyde PMC leakage less than or equal to 5%)”. Besides, the “Comment Code: Melamine formaldehyde PMC leakage” value (code letter J) is “J (Melamine formaldehyde PMC leakage less than or equal to 5%)”. With `CC(=CCC1CC=C(C)C1(C)C)CO` (stereo not shown) [Material 908], the “Melamine formaldehyde PMC leakage (Comment Code J)” value was “J (Melamine formaldehyde PMC leakage less than or equal to 5%)”.

For the compound `CC(C)(C)c1ccc(CC=O)cc1` [Material 994], the “Comment Code: Melamine formaldehyde PMC leakage” value (code letter J) is on record as “J (Melamine formaldehyde PMC leakage less than or equal to 5%)”. The same measure, in the same setting: next, `CC/C=C\CCOC(=O)CCCC` [Material 535]: “J (Melamine formaldehyde PMC leakage less than or equal to 5%)”.

As for `C=CC(C)(CCC=C(C)C)OC(=O)c1ccccc1N` (stereo not shown) [Material 153], the “Melamine formaldehyde PMC leakage (Comment Code J)” value under setting [1] is “J (Melamine formaldehyde PMC leakage less than or equal to 5%)”. As to `O=C(Cc1ccccc1)OCCc1ccccc1` [Material 959], the “Melamine formaldehyde PMC leakage (Comment Code J)” value was “J (Melamine formaldehyde PMC leakage less than or equal to 5%)”. As to `CC1=CCC23C(C)CCC(C(C)C)C2C13` (stereo not shown) [Material 714], the “Melamine formaldehyde PMC leakage (Comment Code J)” value is “J (Melamine formaldehyde PMC leakage less than or equal to 5%)”. The “Comment Code: Melamine formaldehyde PMC leakage” value (code letter J) is reported as “J (Melamine formaldehyde PMC leakage less than or equal to 5%)”.

Consider `C[C@@H]1CC[C@H]2C(C)(C)[C@H]3C[C@@]12CC[C@@]3(C)O` [Material 569], for which the “Melamine formaldehyde PMC leakage (Comment Code J)” value is recorded as “J (Melamine formaldehyde PMC leakage less than or equal to 5%)”. The “Comment Code: Melamine formaldehyde PMC leakage” value (code letter J) is reported as “J (Melamine formaldehyde PMC leakage less than or equal to 5%)”. For `CC(C)C(=O)OCc1ccccc1` [Material 647], under “code letter J”, the “Comment Code: Melamine formaldehyde PMC leakage” value is on record as “J (Melamine formaldehyde PMC leakage less than or equal to 5%)”. `CC1CCC(C(C)C)C2(C1)OCC(CO)O2` (stereo not shown) [Material 349]: under setting [1], the “Melamine formaldehyde PMC leakage (Comment Code J)” value was “J (Melamine formaldehyde PMC leakage less than or equal to 5%)”.

Take `CC1C(=O)CC2(C)CCCC(C)(C)C23CC13` (stereo not shown) [Material 804]: the “Melamine formaldehyde PMC leakage (Comment Code J)” value is listed as “J (Melamine formaldehyde PMC leakage less than or equal to 5%)”. Moreover, the “Comment Code: Melamine formaldehyde PMC leakage” value (code letter J) is “J (Melamine formaldehyde PMC leakage less than or equal to 5%)”.

For `CC(C=O)=CCC1C(C)=CCCC1(C)C` (stereo not shown) [Material 1116], under setting [2], the “Comment Code: Melamine formaldehyde PMC leakage” value is on record as “J (Melamine formaldehyde PMC leakage less than or equal to 5%)”.
